Some of the results follow.
B1: il10ra_site1_normal_mot_2c1a291787c6f40772924d4e9068d803_0001_af2_000000222_0001_34_48_H_._HHH_b1_03643_af2_0001_0000400018_0000002_0_af2pred_0001 (protein)
chain: SSSSSDDRVLELAARALALATREGDEERARRLFELLIRLYREGDPEVEEELEKLAREVLESSSSS
B2: il10ra_site1_sap_12_mot_HHH_b1_03613_af2_000000245_0001_1_20_H_._HHH_b1_00600_af2_0001_0000100001_0000002_0_0001_af2pred_0001 (protein)
chain: SSSSSEELEIRALLRKAKLAVEAGDPEAARIALEWAEKLARELGDEELLREIEELLEKLEKSSSS
B3: il10ra_site1_sap_18_mot_HHH_b1_02665_000000293_0001_1_18_H_._HHH_b2_04412_af2_0001_0000100001_0000001_0_0001 (protein)
chain: SSSSDAEELAEEVIEELEELRKRGNHQEVFEAIEEAIKRLIELNDQEALRLLLRFLRELLSSSSS
B4: il10ra_site1_sap_9_mot_HHH_b1_00666_000000226_0001_43_56_H_._HHH_b1_00849_0001_0000300010_0000001_0_0001_af2pred_0001 (protein)
chain: SSPEEAQKLLEEAEELAEEQNDEKARIAVRFLKLSDEDARKRNNEEAVRAVAWAAEALLQILRKS
B5: il10ra_site1_normal_mot_8756ee2cf497b5429c717dfc0c0bcfd6_0001_000000186_0001_1_13_H_._HHH_b2_02451_af2_0001_0000900015_0000001_0 (protein)
chain: SSSSDESQEVIEALRQVVELLQEGDEEEAEELAEEALRIARELGNDVLVVQLEYALRRARSSSSS
B6: il10ra_site1_normal_mot_HHH_b1_04275_000000150_0001_22_39_H_._HHH_b2_01516_af2_0001_0000400013_0000002_0 (protein)
chain: SSSSDEQQRVLELLLEVFRALLRGDPEEAEELLREAEELAERLNDERLEEAIRIVREAVEASSSS
B7: il10ra_site1_normal_mot_8756ee2cf497b5429c717dfc0c0bcfd6_0001_000000186_0001_1_13_H_._HHH_b1_06454_0001_0000300028_0000001_0_af2pred_0001 (protein)
chain: SSSSSSSDVFELLREAAELHFEGNPEEARKVLEEAEELAEERGDLTAEAIIRFMLEQASSSSSSS
B8: il10ra_site1_normal_mot_HHH_b2_00800_af2_000000047_0001_1_20_H_._HHH_b1_05749_0001_0000300027_0000001_0 (protein)
chain: SSSSQEEYEFVREIIERAKELFEEGDPEEARRLLEEAEEEAEELGNPLVKFSLEALLKALRSSSS
B9: il10ra_site1_sap_26_mot_HHH_b2_02053_af2_000000006_0001_3_19_H_._HHH_b1_02402_0001_0000100003_0000002_0_0001 (protein)
chain: SSSSDLEELVEAALRLAEQALEAGDPRAARLMLRALEVVLEREGNPELLEEVERLLEEIENSSSS
B10: il10ra_site1_normal_mot_0cd074c2d6d3de76f1399c5a775575d2_0001_1_af2_000000000_0001_16_30_H_._a6da520ff4a02840130205282d0b8d49_0001_0001_0000200007_0000001_0_af2 … (protein)
chain: SREQAILYAAIVASGGDEDRIEHLLEIYYEFTGDPAVKEVLERLRAAKAAGIPAEELLKQLEAEN
B11: il10ra_site1_normal_mot_HHH_b2_03220_af2_000000223_0001_23_40_H_._HHH_b1_02071_0001_0000300027_0000001_0 (protein)
chain: SSSSNERNEEIWELLRRILEAIAEGDEELVEELLEEVRRLIEEANSEVFKFALRALERALKSSSS
B12: il10ra_site1_sap_12_mot_HHH_b2_03328_af2_000000127_0001_1_19_H_._HHH_b2_04442_0001_0000600053_0000001_0_0001 (protein)
chain: SSSSDDYEHAKKLIEEAAELQRQGNPEEAERVLEELEEFLEERNDLVTLWAVRHLLELIRRSSSS
B13: il10ra_site1_sap_19_mot_HHH_b2_06480_af2_000000075_0001_1_18_H_._HHH_b1_01541_af2_0001_0000200015_0000002_0_0001 (protein)
chain: SSSSDEELREEAEELLEKLKELNAQERFELLKEVIELAHEHNDPEVFRLVMEAIKEFIERSSSSS
B14: il10ra_site1_sap_20_mot_126ace9b790e630c13bc3545a3f0f279_0001_af2_000000183_0001_15_29_H_._HHH_b1_06895_0001_0000200006_0000001_0_0001 (protein)
chain: SSSSDEEDEEVLRLSREAFRLALRGNPEEARRVLEEAIEIAREIGNERALEMLERLLETQSSSSS
B15: il10ra_site1_normal_mot_8756ee2cf497b5429c717dfc0c0bcfd6_0001_000000186_0001_1_13_H_._HHH_b1_02515_0001_0000400033_0000001_0 (protein)
chain: SSSSSDASRELYELLREIVELIHEGDPEEARELIREAEELAEEAGNDVFLAQLEYLLRHISSSSS
B16: il10ra_site1_normal_mot_HHH_b1_00992_000000182_0001_23_40_H_._HHH_b2_04876_af2_0001_0001000030_0000001_0 (protein)
chain: SSSSDEEDERYVRLAIKFARFLFEAGDPEAARRILRAAIDVARRSGNPELVRELEELLEELSSSS
B17: il10ra_site1_sap_22_mot_HHH_b2_05111_af2_000000002_0001_42_56_H_._HHH_b2_01154_0001_0000300021_0000002_0_0001_af2pred_0001 (protein)
chain: SSSSSLIQQLLELLKRIIELLREGNPEEARELLEEAKELAEEAGNELVRLRLEFLERLVNSSSSS
B18: il10ra_site1_sap_27_mot_HHH_b1_06816_000000239_0001_1_19_H_._HHH_b1_03766_af2_0001_0000200012_0000001_0_0001_af2pred_0001 (protein)
chain: SSSSDEEEIERKVEELLEEAKHIEDPDELSYVLIRAYALANRGNDPELKRLVREVAQKLISSSSS
B19: il10ra_site1_normal_mot_HHH_b2_03220_af2_000000223_0001_23_40_H_._HHH_b1_07441_af2_0001_0000300030_0000002_0 (protein)
chain: SSSSSREANEQVWELIRRALELAANGNPEEAEKLLEEAERLAEENNNRVFLIQIEYLERQLSSSS
B20: il10ra_site1_sap_18_mot_HHH_b2_00816_af2_000000077_0001_1_19_H_._HHH_b1_04432_af2_0001_0000400023_0000001_1_0001_af2pred_0001 (protein)
chain: SSSSSSEEHARKSARFLLEAAKQLDDDEAVRRTLREAKHAAESVNDEELKEEIEEVIEELSSSSS
B21: il10ra_site1_normal_mot_HHH_b2_03434_000000017_0001_1_19_H_._HHH_b2_02344_0001_0000500077_0000001_0 (protein)
chain: SSSSSEHDELYELARRLIELAFEGDEEEVERLAEEAKELAKELNNEVLLRVIEWALRMHNSSSSS
B22: il10ra_site1_normal_mot_HHH_b1_05357_000000034_0001_23_39_H_._ems_3hC_894_0002_af2_0001_0000300010_0000002_0_af2pred_0001 (protein)
chain: SDLEARVAHLIIVIFALAHEKQDPRLEELAKELARLAVEAAIHNDEEKLEEVEERAREVVESGSS
B23: il10ra_site1_sap_10_mot_9de44d9dbda350e72dbd1fc967c0af38_0001_000000021_0001_54_65_H_._HHH_b2_06051_0002_0000100004_0000002_0_0001 (protein)
chain: SSSSDEEREIAEKAVRHFLKAAKRADEEYRELTLRFAKWTAEAVNDEELRKLVEEVEEELSSSSS
B24: il10ra_site1_sap_18_mot_HHH_b1_04771_000000013_0001_40_56_H_._HHH_b1_07552_0001_0000300030_0000001_0_0001 (protein)
chain: SSSSDEEREEALRLSLRIFHALLRGNEEEARELLEELKELAERLNDPRLEWAVESLKEAISSSSS

target: il10ra, Q13651; assay: yeast display titration

Apparent Kd, inactive:
B1 no binding seen, B2 no binding seen, B3 no binding seen, B4 no binding seen, B5 no binding seen, B6 no binding seen, B7 no binding seen, B8 no binding seen, B9 no binding seen, B10 no binding seen, B11 no binding seen, B12 no binding seen, B13 no binding seen, B14 no binding seen, B15 no binding seen, B16 no binding seen, B17 no binding seen, B18 no binding seen, B19 no binding seen, B20 no binding seen, B21 no binding seen, B22 no binding seen, B23 no binding seen, B24 no binding seen

— paper PMC10163288
